Patent US20080064675A1, “Use of Aromatic flavoring agents with high melting point as solubilizing agents” (priority 2005, published 2008)
For some assays here: At least one read-out could not be matched to a standard name with certainty. For some assays here: For at least one compound, name, drawing or mass did not settle the structure.

How the values were obtained:
Assay type in all cases: physicochemical
[1] = anethole and vanillin in compositions having anetholtrithione (Example 4)
[2] = vanillin as crystallization inhibitor for anetholtrithione in trans-anethole (Example 2); conditions: for solubilization: 50° C., 20 minutes, stirring
[3] = trans-anethole as solubilizing agent for anetholtrithione in ethanol (Example 1); conditions: for dissolution: 50° C., 20 minutes, stirring
[4] = 2 g in 20 g trans-anethole only
[5] = 2 g in mixture of 20 g trans-anethole and 2 g vanillin
[6] = 2 g in mixture of 20 g ethanol 96° GL and 20 g trans-anethole

**Q.** For `COc1ccc(-c2cc(=S)ss2)cc1` [anetholtrithione, trans-anetholtrithione], which solubilization ([1]; tube A: 200 mg in 2 mL benzyl alcohol, even after heating at 60° C.) is on record?
**A.** The solubilization was “did not completely dissolve”.

**Q.** And the solubilization ([1]; tube B: 200 mg in 2 mL benzyl benzoate, even after heating at 60° C.)?
**A.** The solubilization was “did not completely dissolve”.

**Q.** And the solubilization ([1]; tube C: 200 mg in 2 mL anethole and 2 mL benzyl benzoate, stirred at room temperature)?
**A.** The solubilization was “complete solubilization”.

**Q.** What about the solubilization ([1]; tube D: 200 mg in 2 mL anethole and 2 mL benzyl alcohol, stirred at room temperature) of the same compound?
**A.** The solubilization was “complete solubilization”.

**Q.** And the solubilization ([1]; tube E: 200 mg in 200 mg vanillin and 2 mL benzyl benzoate, stirred at room temperature)?
**A.** The solubilization was “complete solubilization”.

**Q.** And the solubilization ([1]; tube F: 200 mg in 200 mg vanillin and 2 mL anethole, stirred at room temperature)?
**A.** The solubilization was “complete solubilization”.

**Q.** What about the solubilization ([1]; tube G: 200 mg in 200 mg vanillin and 2 mL benzyl alcohol, stirred at room temperature) of the same compound?
**A.** Its solubilization is “complete solubilization”.

**Q.** And the “formation of crystals on cooling” value [2, 4]?
**A.** Its value is “formation of crystals of anetholtrithione was noted as soon as the solution achieved room temperature”.

**Q.** What about the solubilization [2, 4] of the same compound?
**A.** The solubilization was “complete solubilization”.

**Q.** What about the “period without formation of crystals after cooling at room temperature” value [2, 5] of the same compound?
**A.** Its value is “at least 30 minutes”.

**Q.** And the solubilization [2, 5]?
**A.** Its solubilization is “complete solubilization”.

**Q.** What about the dissolution ([3]; 2 g in 40 g ethanol 96° GL only) of the same compound?
**A.** The dissolution was “no complete dissolution”.

**Q.** And the “period without formation of crystals after cooling at room temperature” value [3, 6]?
**A.** Its value is “at least 30 minutes”.

**Q.** And the dissolution [3, 6]?
**A.** The dissolution was “complete dissolution”.
